Results reported in article PMC8980529.
These are yes or no findings as the source states them, for the method shown. Some entries that bind do so weakly or less than the wild type.

Columns and labels:
[1] = target: T1, Proline/arginine-rich end leucine-rich repeat protein (UniProt P51888); experiment: peptide or protein array; ECM proteins (0.5 mg/ml) printed on nitrocellulose-covered slides in triplicates, blocked with 4% BSA; incubated with FHR1 (5, 25, 50 µg/ml) or FHR5 (0.5, 5, 20 µg/ml); detected with goat anti-human FH or anti-FHR5 and Alexa-647 anti-goat IgG; signal above gelatin taken as binding; both purified
T1 sequence: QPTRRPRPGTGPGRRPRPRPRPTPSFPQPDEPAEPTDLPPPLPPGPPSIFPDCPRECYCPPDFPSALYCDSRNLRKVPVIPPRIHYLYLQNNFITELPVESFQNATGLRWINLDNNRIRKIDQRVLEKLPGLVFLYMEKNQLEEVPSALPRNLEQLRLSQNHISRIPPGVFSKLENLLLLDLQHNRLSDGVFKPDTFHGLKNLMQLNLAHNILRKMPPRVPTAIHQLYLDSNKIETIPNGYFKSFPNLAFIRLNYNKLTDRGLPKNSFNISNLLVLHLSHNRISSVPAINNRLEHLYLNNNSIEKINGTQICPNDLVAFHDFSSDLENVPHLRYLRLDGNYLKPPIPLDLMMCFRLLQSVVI

[2] = target: T2, Osteoadherin (UniProt Q99983); experiment: as above
T2 sequence: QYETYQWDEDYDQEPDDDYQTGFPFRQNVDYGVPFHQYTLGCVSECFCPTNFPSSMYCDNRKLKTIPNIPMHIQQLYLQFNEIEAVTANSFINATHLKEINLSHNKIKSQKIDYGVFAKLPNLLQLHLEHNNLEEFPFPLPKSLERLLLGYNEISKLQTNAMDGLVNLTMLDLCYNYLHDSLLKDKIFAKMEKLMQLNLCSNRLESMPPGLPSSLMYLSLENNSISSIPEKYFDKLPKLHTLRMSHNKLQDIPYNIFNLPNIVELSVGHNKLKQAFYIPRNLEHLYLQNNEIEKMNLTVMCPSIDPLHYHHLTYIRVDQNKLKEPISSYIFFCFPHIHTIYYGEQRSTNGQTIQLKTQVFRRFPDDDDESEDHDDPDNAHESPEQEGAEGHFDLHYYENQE

[3] = target: T1, Proline/arginine-rich end leucine-rich repeat protein; experiment: ELISA; ECM proteins immobilised (10 µg/ml), incubated with FHR5 and its fragments CCPs 1-4, CCPs 3-7, CCPs 8-9 in equimolar concentrations (100 nM or 200 nM); detected with goat anti-human FHR5; both purified
[4] = target: T2, Osteoadherin; experiment: as above
[5] = target: T3, Fibromodulin (UniProt Q06828); experiment: as above
T3 sequence: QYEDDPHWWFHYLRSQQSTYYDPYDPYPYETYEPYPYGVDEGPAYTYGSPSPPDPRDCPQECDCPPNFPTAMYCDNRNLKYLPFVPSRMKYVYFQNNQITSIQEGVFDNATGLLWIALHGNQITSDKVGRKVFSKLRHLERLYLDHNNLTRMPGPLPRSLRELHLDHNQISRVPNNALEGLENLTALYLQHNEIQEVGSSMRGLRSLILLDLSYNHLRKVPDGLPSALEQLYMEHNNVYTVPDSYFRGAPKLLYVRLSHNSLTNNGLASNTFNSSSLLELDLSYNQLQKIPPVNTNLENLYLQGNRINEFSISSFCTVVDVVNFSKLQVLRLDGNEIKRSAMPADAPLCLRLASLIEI

Measured: binding

B1: Recombinant human factor H-related protein 5 (protein, UniProt Q9BXR6 19-569)
chain: EGTLCDFPKIHHGFLYDEEDYNPFSQVPTGEVFYYSCEYNFVSPSKSFWTRITCTEEGWSPTPKCLRMCSFPFVKNGHSESSGLIHLEGDTVQIICNTGYSLQNNEKNISCVERGWSTPPICSFTKGECHVPILEANVDAQPKKESYKVGDVLKFSCRKNLIRVGSDSVQCYQFGWSPNFPTCKGQVRSCGPPPQLSNGEVKEIRKEEYGHNEVVEYDCNPNFIINGPKKIQCVDGEWTTLPTCVEQVKTCGYIPELEYGYVQPSVPPYQHGVSVEVNCRNEYAMIGNNMITCINGIWTELPMCVATHQLKRCKIAGVNIKTLLKLSGKEFNHNSRIRYRCSDIFRYRHSVCINGKWNPEVDCTEKREQFCPPPPQIPNAQNMTTTVNYQDGEKVAVLCKENYLLPEAKEIVCKDGRWQSLPRCVESTAYCGPPPSINNGDTTSFPLSVYPPGSTVTYRCQSFYKLQGSVTVTCRNKQWSEPPRCLDPCVVSEENMNKNNIQLKWRNDGKLYAKTGDAVEFQCKFPHKAMISSPPFRAICQEGKFEYPICE
binds: all assays above
